Source: patent US20200277346A1
Results are given in words; binding and its absence hold for the method and conditions named. Some binding calls cover weakened binding; strength is not graded here. Values belong to the binder of their own block, whether it stands above or below them.

Amino acid sequences for entries named in this document (tags omitted). Residues count along the entry.
UniProt Q96J02, residues 524-903: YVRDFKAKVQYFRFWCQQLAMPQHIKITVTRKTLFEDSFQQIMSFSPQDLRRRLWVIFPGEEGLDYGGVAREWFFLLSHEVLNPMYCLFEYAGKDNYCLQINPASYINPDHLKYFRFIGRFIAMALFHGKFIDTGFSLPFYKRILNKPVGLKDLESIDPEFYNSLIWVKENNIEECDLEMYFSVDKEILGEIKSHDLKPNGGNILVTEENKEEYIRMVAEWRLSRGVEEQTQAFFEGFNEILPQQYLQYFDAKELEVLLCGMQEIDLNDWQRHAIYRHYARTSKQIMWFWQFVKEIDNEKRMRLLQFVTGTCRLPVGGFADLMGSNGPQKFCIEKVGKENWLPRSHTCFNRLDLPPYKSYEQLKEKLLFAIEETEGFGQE

How the values were obtained:
Assay in all cases: phage selection; ELISA EC50 on immobilized cognate HECT domain (Table 4, not given)
[1] = target: ITCH HECT domain (human) (UniProt Q96J02)
[2] = target: T1, HECTD1 HECT domain (human) (UniProt Q9ULT8)
T1 sequence (looked up): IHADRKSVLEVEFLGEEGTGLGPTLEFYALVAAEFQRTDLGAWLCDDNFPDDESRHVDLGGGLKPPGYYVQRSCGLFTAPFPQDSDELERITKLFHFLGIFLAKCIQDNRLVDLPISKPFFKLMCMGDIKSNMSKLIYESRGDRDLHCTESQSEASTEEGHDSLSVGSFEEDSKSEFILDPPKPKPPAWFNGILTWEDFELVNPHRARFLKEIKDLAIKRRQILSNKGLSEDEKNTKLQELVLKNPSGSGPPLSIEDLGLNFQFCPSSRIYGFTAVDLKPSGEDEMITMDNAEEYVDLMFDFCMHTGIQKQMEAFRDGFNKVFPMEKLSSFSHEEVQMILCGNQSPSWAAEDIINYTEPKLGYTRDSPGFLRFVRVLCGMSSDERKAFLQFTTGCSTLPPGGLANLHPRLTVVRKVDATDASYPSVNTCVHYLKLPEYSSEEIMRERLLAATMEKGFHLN

[3] = target: T2, EDD1 HECT domain (human) (UniProt O95071)
T2 sequence (looked up): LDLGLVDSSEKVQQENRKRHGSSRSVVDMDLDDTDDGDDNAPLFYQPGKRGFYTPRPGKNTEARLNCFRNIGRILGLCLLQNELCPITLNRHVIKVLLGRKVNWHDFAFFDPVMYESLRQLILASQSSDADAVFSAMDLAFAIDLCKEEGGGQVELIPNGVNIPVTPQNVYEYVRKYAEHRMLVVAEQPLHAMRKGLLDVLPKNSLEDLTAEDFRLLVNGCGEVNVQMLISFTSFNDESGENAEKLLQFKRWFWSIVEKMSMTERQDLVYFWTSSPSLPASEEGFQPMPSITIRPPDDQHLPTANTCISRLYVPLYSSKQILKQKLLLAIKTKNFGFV

binding [1]: binds
B1: Ubv.IT.4 (designed binder)
chain: MQIFVKTLTGLSITTLEVEPSDTIENVKAKIQDKEGIPPDQQILIFGGKRLEDGRTLSDYNIQKKSSLYLLMRLRGVSR

binding [2]: binds
B2: Ubv.D1.4 (designed binder)
chain: MAILVKTVTGNSITLEVEPSDTIENVKAKIQDKEGIPPDQQGLLFARTRLEDGRTLSDYNIQKASTLHLVRTLRGTDT

binding [2]: binds
B3: Ubv.D1.3 (designed binder)
chain: MQIFVKTVSGKTINLEVEPSDTIENVKAKIQDKEGIPPDQQGLIFARKRLEDGRTLSDYNIQDESNLHLVLTLVGRNL

binding [3]: binds
B4: Ubv.ED.3 (designed binder)
chain: MSIFVITFTRKPITLEVEPSDTIENVKAKIQDKEGIPPDQQILIFAGKKLEDGRTLSDYNIQKESSLYLFLRLRGAKV

binding [2]: binds
B5: Ubv.D1.2 (designed binder)
chain: MQILVRTLTGKTIRLEVEPSDTIENVKAKIQDKEGIPPDQQRLIFAGMRLEDGRTLSDYNIQGFSPLGLVLRLLRVEL

binding [3]: binds
B6: Ubv.ED.7 (designed binder)
chain: MQISVVTLTRPTITLEVEPSDTIENVKAKIQDKEGIPPDQQRLIFAGRDLEDGRTLSDYNIQKQSSLHLFFRLRGSVS
